From US20020062088A1, “System and method for statistical analysis of QT interval as a function of changes in RR interval” (priority 2000, published 2002)

Test system: conscious mongrel dog
Assay: QT-RR interval relationship (ECG) following intravenous infusion in the conscious mongrel dog
Details: post-dose curve versus pre-dose curve
Text: A system for recording electrocardiogram data in accordance with the present invention is broadly shown in FIG. 6 as reference numeral 100. […] The vehicle or test compound may be administered in various ways, including but not limited to orally, intravenously, or subcutaneous.
Heart rate (RR interval) and Lead II ECG data are collected continuously on a beat-to-beat basis at a sampling rate of 1000 Hz to allow for millisecond (ms) resolution. Using the sampled data, the QT interval and preceding RR interval are measured on individual cardiac cycles using commercially available data acquisition and analysis software. The software package used in support of the data presented here was from Gould Inc. (Po-Ne-Mah) subsidiary. This software permits visual validation of the determination of end points used in the calculation of the ECG time intervals. The collection of data is not limited to any particular method. For example, ECG time intervals can be measured using a ECG strip chart recorder. Thus, both manual and electrical data collection is possible with the present invention. […]
Approximately 250 to 300 consecutive cardiac cycles are analyzed for a pre-dose period and during steady-state compound exposure. […]
The upper 95% confidence limit for the difference of the curves is determined for each of the dose-to-pre-dose comparisons. […]

In the case of `Cc1cccc(CCN2CCC(C(=O)c3ccc(NS(C)(=O)=O)cc3)CC2)n1` [E-4031, Methanesulfonamide, N-[4-[[1-[2(6-methyl-2-pyridinyl)ethyl]-4-piperidinyl]carbonyl]phenyl]], the “Treatment crosses pre-dose curve” value is reported as “No”.
